Laboratory results published in PubChem BioAssay AID1347076 (National Center for Advancing Translational Sciences (NCATS), 2019).
Hit rate of the full screen: of about 400,000 compounds, about 13,000 (3.2%) were called active. The inconclusive results got no clear call from the source; some entries with a clear call stand among them for comparison. Calls follow the shape of the dose curve; as a rule, active = well fitted cell-killing curve with a large enough effect; inconclusive = small, poorly fitted or top-dose-only effect, or effect the other way; inactive = flat fitted curve, though single readings scatter. A potency beside an inconclusive call is a rough fit, not a confirmed value.

experiment: qHTS assay for MDR1-selective chemotherapeutics: Primary screen using the drug-selected MDR subline cells KB-V1; settings: KB-V1 MDR cells viability, CellTiter-Glo, 72 h; activity change, negative = cytotoxicity: at 46.1 µM (top of the series); also: nearly all actives have a fitted effect of over 60% in size
Summary of the method: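 Cytotoxicity via CellTiter-Glo luminescence after 72 h compound exposure at 37 degrees C. Cells: drug-selected KB-V1 line, DMEM phenol-red free plus 10% FBS. Compounds tested at multiple concentrations; normalized data fitted to concentration-effect curves.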
% is scaled to controls: 0 for no effect and ±100 for the full control effect; potency is read from the fitted curve at half-maximal effect.

SMILES | Potency | activity change, negative = cytotoxicity
COC(=O)[C@@]1(Cc2ccc(F)cc2)[C@H]2c3cc(C(=O)N4CCCC4)n(Cc4ccc(OC(F)(F)F)cc4)c3C[C@H]2CN1C(=O)c1ccccc1 | inconclusive: 16.4 µM [cytotoxic, single point] | 
CCCCN1C(=O)C(CC(=O)NCC2CCCCC2)CC(C(=O)N2CCCCCC2)=C1C (centres undefined) | inconclusive: 13.2 µM [cytotoxic, partial curve, poor fit] | 
O=C(N/N=C/c1cc2c(cc1Br)OCO2)C1COc2ccccc2O1 (centres undefined) | inconclusive: 18.4 µM [cytotoxic, single point] | 
CCCN(CCC)CCNC(=S)Nc1ccc2nc3n(c(=O)c2c1)CCCCC3 | inconclusive: 29.1 µM [cytotoxic, single point] | 
O=C([C@@H]1CC=C[C@@H]2CCN(C3CCCCC3)C(=O)[C@@H]21)N1CCOCC1 |  | inactive: -6.6%
CCOc1ccc(N2CC(NS(=O)(=O)c3cccnc3)CC2=O)cc1 (centres undefined) |  | inactive: 23.7%
Cc1ccn(-c2ccc(NC(=O)c3cccs3)cc2)n1 | active: 11.6 µM | 
N=c1cc(C2(O)CCCCC2)n2c(nc3ccccc32)s1 | active: 16.4 µM | 
Cn1c2c(c(=O)n(C)c1=O)CN(Cc1ccc(F)cc1)CN2 | inconclusive: 29.1 µM [rising, single point] | 
CCCn1c(SCC(=O)C(C)(C)C)nc2ccccc21 | inconclusive: 3.66 µM [cytotoxic, partial curve, poor fit] | 
Cc1c(CN(C)C(=O)C2CCC(=O)N(Cc3ccccc3F)C2)[nH]c2ccccc12 (centres undefined) |  | inactive: -20.6%
CCOC(=O)C(=CNc1ccc2c(c1)nnn2-c1ccc(Cl)cc1)C(=O)OCC | inconclusive: 20.6 µM [cytotoxic, single point] | 
COc1cccc(CN2C(=O)[C@H]3Cc4c([nH]c5ccccc45)C(C)(C)N3C2=O)c1 | active: 16.4 µM | 
COc1ccccc1CNc1nc2ccccc2n1CCN1CCCCC1 |  | inconclusive: -106%
COc1ccc(N2CCn3c2nc2c3c(=O)n(CCCc3ccccc3)c(=O)n2C)c(OC)c1 | active: 9.2 µM | 
CCOc1cccc(C(=O)Nc2ccccc2C(=O)N2CCN(C)CC2)c1 | inconclusive: 11.6 µM [cytotoxic, partial curve, poor fit] | 
CCCOc1c(Br)cc(C2C3=C(CCCC3=O)N(C)C3=C2C(=O)CCC3)cc1OC | inconclusive: 29.1 µM [cytotoxic, single point] | 
Cc1cc(C)nc(/N=C(\N)N2CCc3ccccc32)n1 | inconclusive: 32.6 µM [rising, single point] | 
O=S(=O)(c1ccc(-c2csc(Nc3ccc(Br)cc3)n2)cc1)N1CCCC1 | inconclusive: 1.84 µM [cytotoxic, partial curve, poor fit] | 
COc1ccc(NC(=O)C2(C)Cc3c(-c4ccc5c(c4)OCO5)ccnc3O2)cn1 (centres undefined) | active: 11.6 µM | 
COc1ccc(Cn2ccc3nc(C)c(C(=O)N4CCN(c5ccccc5OC)CC4)cc3c2=O)cc1 |  | inactive: -13.6%
CC(C)NC(=O)c1ccc(COc2cccc3ccccc23)o1 | inconclusive: 25.9 µM [cytotoxic, partial curve, poor fit] | 

Among those listed so far, 3 have fluorine.
SMILES | Potency | activity change, negative = cytotoxicity
COC(=O)[C@@]1(Cc2ccc(F)cc2)[C@H]2c3cc(C(=O)N4CCCC4)n(Cc4ccc(OC(F)(F)F)cc4)c3C[C@H]2CN1C(=O)c1ccccc1 | inconclusive: 16.4 µM [cytotoxic, single point] | 
Cn1c2c(c(=O)n(C)c1=O)CN(Cc1ccc(F)cc1)CN2 | inconclusive: 29.1 µM [rising, single point] | 
Cc1c(CN(C)C(=O)C2CCC(=O)N(Cc3ccccc3F)C2)[nH]c2ccccc12 (centres undefined) |  | inactive: -20.6%

Next part.

SMILES | Potency | activity change, negative = cytotoxicity
C=CCn1c(SCC(=O)c2[nH]c(C)c(C(=O)OC)c2C)nc2scc(-c3ccc(OC)c(OC)c3)c2c1=O | active: 6.51 µM | 
COc1ccc(-c2noc(CSc3nc(C)cc(=O)[nH]3)n2)cc1OC |  | inactive: 0%
CCCCCCCCN1C(=O)[C@H](CC(=O)NCc2ccccc2)C[C@@]2(C(=O)OC)CCCCC=C12 | inconclusive: 9.2 µM [cytotoxic, partial curve] | 
Cc1ccc(SCC(=O)OCC(=O)N(C)CC(=O)Nc2ccccc2Cl)cc1C |  | inactive: -3.28%
CCCc1nc2c(C)cc(-c3nc4ccccc4n3C)cc2n1Cc1ccc(-c2ccccc2C(=O)O)cc1 | inconclusive: 16.4 µM [cytotoxic, single point] | 
CC1=C(C(N)=O)C(c2cccc(C)c2)n2nc(-c3cccc(C)c3)nc2N1 (centres undefined) |  | inactive: 28.9%
Cc1cc(C)n(CCc2nc3c4ccccc4nc(N4CCN(c5ccc(F)cc5)CC4)n3n2)n1 | inconclusive: 10.3 µM [rising, single point] | 
O=C(CN1C(=O)c2ccccc2S1(=O)=O)Nc1ccccc1C(=O)NCc1ccco1 |  | inactive: 27.8%
O=C(C1CCC(CNS(=O)(=O)c2cccc3nsnc23)CC1)N1CC=C(c2ccccc2)CC1 (centres undefined) |  | inactive: -22.2%
Cc1cn2c(=O)c(S(=O)(=O)NCc3ccccc3Cl)c(C)nc2s1 |  | inactive: -5.55%
CC(C)CC(NC(=O)C1CCC(=O)N1C(=O)OCc1ccccc1)C(=O)NC(Cc1ccccc1)C(N)=O (centres undefined) | inconclusive: 1.84 µM [rising, partial curve, poor fit] | 
Cc1cc(/C=N/n2cnnc2)c(C)n1-c1cc(Cl)ccc1Cl | inconclusive: 18.4 µM [cytotoxic, single point] | 
COCCNC(=S)N(CCc1c(C)[nH]c2ccc(OC)cc12)Cc1ccco1 | inconclusive: 13 µM [cytotoxic, partial curve, poor fit] | 
Cc1ccc(Nc2nc3ccccc3n3cnnc23)cc1C |  | inactive: 1.49%
CCN(C(=O)CSc1nc2n[nH]c(C)c2c(=N)n1-c1cccc(OC)c1)c1cccc(C)c1 | inconclusive: 20.6 µM [cytotoxic, single point] | 
CN(C)CCOC(=O)CCCCCCCCC(=O)OCCN(C)C |  | inactive: 10.9%
C=CCn1nc(C(=O)Nc2ccc(OC)cc2)cc1-c1sc(NC(=O)c2ccccc2)nc1C |  | inactive: -29.8%
O=C(O)c1ccc(COc2ccccc2/C=C2\NC(=O)N(Cc3ccc(F)cc3)C2=O)cc1 |  | inactive: 18.2%
COc1ccc(NC(=O)c2cccc(S(=O)(=O)N3CCN(C)CC3)c2)c(OC)c1 | inconclusive: 20.6 µM [cytotoxic, partial curve] | 
O=C(COC(=O)C1(c2ccccc2F)CCCC1)N1CCNC1=O |  | inactive: -0.271%
Cc1ccc2[nH]c3c(=O)n(CC(=O)NCCc4ccc(Cl)cc4)ncc3c2c1 | inconclusive: 9.2 µM [rising, partial curve] | 
CCCCCCn1c(N2CCN(c3cccc(Cl)c3)CC2)nc2c1c(=O)[nH]c(=O)n2C | active: 16.4 µM | 
